Some of these results come from one statement about several compounds together. At least one compound was matched to its structure with a doubt left.
Molecular target: T1, Cathepsin S (Homo sapiens, UniProt P25774)
T1 construct: endogenous in cells
Assay: Inhibition of Cathepsin S in a cell based assay (Riese et al., Immunity 1996)
Details: compounds of formulas (I) and (II)

Amino acid sequences for entries named in this document (tags omitted). Residues count along the entry.
UniProt P25774, 115-331: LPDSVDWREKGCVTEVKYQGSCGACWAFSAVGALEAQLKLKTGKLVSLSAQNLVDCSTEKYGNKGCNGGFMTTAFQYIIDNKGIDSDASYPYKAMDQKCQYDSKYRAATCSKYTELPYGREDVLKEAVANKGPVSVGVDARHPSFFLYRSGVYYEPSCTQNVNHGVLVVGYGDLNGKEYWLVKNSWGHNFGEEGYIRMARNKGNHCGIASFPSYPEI

Concentration at which potent inhibition of Cathepsin S in a cell based assay was demonstrated, ≤ 15 µM:
CC(C)(C)CC(NC(=O)N1CCOCC1)C(=O)NC1(C#N)CCN(CCc2ccccc2)CC1 (stereo not drawn) [Example 17, Morpholine-4-carboxylic acid [1-(1-phenethyl-4-cyano-piperidin-4-ylcarbamoyl)-3,3-dimethyl-butyl]-amide]
CCCN1CCC(C#N)(NC(=O)C(CC(C)(C)C)NC(=O)N2CCOCC2)CC1 (stereo not drawn) [Example 18, Morpholine-4-carboxylic acid [1-(1-n-propyl-4-cyano-piperidin-4-ylcarbamoyl)-3,3-dimethyl-butyl]-amide]
CCC(C)(C)C(NC(=O)N1CCOCC1)C(=O)NC1(C#N)CCN(C(=O)OCc2ccccc2)CC1 (stereo not drawn) [Example 19, 4-Cyano-4-{3,3-dimethyl-2-[(morpholine-4-carbonyl)-amino]-pentanoylamino}-piperidine-1-carboxylic acid benzyl ester]
CC(=O)N1CCC(C#N)(NC(=O)C(CC(C)(C)C)NC(=O)N2CCOCC2)CC1 (stereo not drawn) [Example 20, Morpholine-4-carboxylic acid [1-(1-acetyl-4-cyano-piperidin-4-ylcarbamoyl)-3,3-dimethyl-butyl]-amide]
CC(C)(C)CC(NC(=O)N1CCOCC1)C(=O)NC1(C#N)CCN(C(=O)c2ccccc2)CC1 (stereo not drawn) [Example 21, Morpholine-4-carboxylic acid [1-(1-benzoyl-4-cyano-piperidin-4-ylcarbamoyl)-3,3-dimethyl-butyl]-amide]
CCOC(=O)N1CCC(C#N)(NC(=O)C(CC(C)(C)C)NC(=O)N2CCOCC2)CC1 (stereo not drawn) [Example 22, 4-Cyano-4-{4,4-dimethyl-2-[(morpholine-4-carbonyl)-amino]-pentanoylamino}-piperidine-1-carboxylic acid ethyl ester]
CN(C)CC(=O)N1CCC(C#N)(NC(=O)C(CC2CCCCC2)NC(=O)N2CCOCC2)CC1 (stereo not drawn) [Example 23, Morpholine-4-carboxylic acid {1-[4-cyano-1-(2-dimethylamino-acetyl)-piperidin-4-ylcarbamoyl]-2-cyclohexyl-ethyl}-amide]
CN1CCC(C#N)(NC(=O)C(CC(C)(C)C)NC(=O)N2CCOCC2)CC1 (stereo not drawn) [Example 25, Morpholine-4-carboxylic acid [1-(4-cyano-1-methyl-piperidin-4-ylcarbamoyl)-3,3-dimethyl-butyl]-amide]
CC(=O)Nc1ccc(C(=O)NC(CC2CCCCC2)C(=O)NC2(C#N)CCN(C)CC2)cc1 (stereo not drawn) [Example 26]
CC(=O)Nc1ccc(C(=O)NC(CC(C)(C)C)C(=O)NC2(C#N)CCN(C)CC2)cc1 (stereo not drawn) [Example 27, 4-Acetylamino-N-[1-(4-cyano-1-methyl-piperidin-4-ylcarbamoyl)-3,3-dimethyl-butyl]-benzamide]
CC(C)(C)OC(=O)N1CCC(C#N)(NC(=O)C(CC2CCCCC2)NC(=O)N2CCOCC2)CC1 (stereo not drawn) [Example 28, 4-Cyano-4-{3-cyclohexyl-2-[(morpholine-4-carbonyl)-amino]-propionylamino}-piperidine-1-carboxylic acid t-butyl ester]
Cl.N#CC1(NC(=O)C(CC2CCCCC2)NC(=O)N2CCOCC2)CCNCC1 (stereo not drawn) [Example 29, Morpholine-4-carboxylic acid [1-(4-cyano-piperidin-4-ylcarbamoyl)-2-cyclohexyl-ethyl]-amide hydrochloride]
CC(C)N1CCC(C#N)(NC(=O)C(CC2CCCCC2)NC(=O)N2CCOCC2)CC1 (stereo not drawn) [Example 30, Morpholine-4-carboxylic acid {1-[4-cyano-1-(1-methyl-ethyl)-piperidin-4-ylcarbamoyl]-2-cyclohexyl-ethyl}-amide]
N#CC1(NC(=O)C(CC2CCCCC2)NC(=O)N2CCOCC2)CCN(Cc2ccccc2)C1 (stereo not drawn) [Example 31, Morpholine-4-carboxylic acid {1-[3-cyano-1-benzyl-pyrrolidin-3-ylcarbamoyl]-2-cyclohexyl-ethyl}-amide]
CC(=O)Nc1ccc(C(=O)NC(CC2CCCCC2)C(=O)NC2(C#N)CCN(Cc3ccccc3)CC2)cc1 (stereo not drawn) [Example 35, 4-Acetylamino-N-[1-(4-cyano-1-benzyl-piperidin-4-ylcarbamoyl)-2-cyclohexyl-ethyl]-benzamide]
CC(=O)Nc1ccc(C(=O)NC(CC2CCCCC2)C(=O)NC2(C#N)CCN(C(C)C)CC2)cc1 (stereo not drawn) [Example 36, 4-Acetylamino-N-{1-[4-cyano-1-(1-methyl-ethyl)-piperidin-4-ylcarbamoyl]-2-cyclohexyl-ethyl}-benzamide]
N#CC1(NC(=O)C(CC2CCCCC2)NC(=O)N2CCOCC2)CCCN(Cc2ccccc2)C1 (stereo not drawn) [Example 37, Morpholine-4-carboxylic acid {1-[3-cyano-1-benzyl-piperidin-3-ylcarbamoyl]-2-cyclohexyl-ethyl}-amide]
CN1CCC(C#N)(NC(=O)C(CC2CCCCC2)NC(=O)c2ccccc2)CC1 (stereo not drawn) [Example 39, N-[1-(4-cyano-1-methyl-piperidin-4-ylcarbamoyl)-2-cyclohexyl-ethyl]-benzamide]
CC(=O)Nc1ccc(C(=O)NC(CC2CCCCC2)C(=O)NC2(C#N)CCN(CCc3ccccc3)CC2)cc1 (stereo not drawn) [Example 40, 4-Acetylamino-N-{1-[4-cyano-1-(2-phenyl-ethyl)-piperidin-4-ylcarbamoyl]-2-cyclohexyl-ethyl}-benzamide]
CC(=O)NCc1ccc(C(=O)NC(CC2CCCCC2)C(=O)NC2(C#N)CCN(C)CC2)cc1 (stereo not drawn) [Example 41, 4-(Acetylamino-methyl)-N-[1-(4-cyano-1-methyl-piperidin-4-ylcarbamoyl)-2-cyclohexyl-ethyl]-benzamide]
Cc1ccc(S(=O)(=O)O)cc1.N#CC1(NC(=O)C(CC2CCCCC2)NC(=O)N2CCOCC2)CCN(C(=N)N)CC1 (stereo not drawn) [Example 43, Morpholine-4-carboxylic acid [1-(1-carbamimidoyl-4-cyano-piperidin-4-ylcarbamoyl)-2-cyclohexyl-ethyl]-amide p-toluenesulfonate]
N#CC1(NC(=O)C(CC2CCCCC2)NC(=O)N2CCOCC2)CCN(Cc2ccccc2Cl)C1 (stereo not drawn) [Example 47, Morpholine-4-carboxylic acid {1-[1-(2-chloro-benzyl)-3-cyano-pyrrolidin-3-ylcarbamoyl]-2-cyclohexyl-ethyl}-amide]
CC(C)(C)CC(NC(=O)N1CCOCC1)C(=O)NC1(C#N)CCN(C(=O)NCc2ccccc2)CC1 (stereo not drawn) [Example 48, Morpholine-4-carboxylic acid [1-(1-benzylcarbamoyl-4-cyano-piperidin-4-ylcarbamoyl)-3,3-dimethyl-butyl]-amide]
CC(C)(C)CC(NC(=O)N1CCOCC1)C(=O)NC1(C#N)CCN(C(=O)Nc2ccccc2)CC1 (stereo not drawn) [Example 49, Morpholine-4-carboxylic acid [1-(1-phenylcarbamoyl-4-cyano-piperidin-4-ylcarbamoyl)-3,3-dimethyl-butyl]-amide]
CC(C)(C)C[C@H](NC(=O)N1CCOCC1)C(=O)NC1(C#N)CCN(C2CCCCC2)CC1 [Example 61, Morpholine-4-carboxylic acid [1-(4-cyano-1-cyclohexyl-piperidin-4-ylcarbamoyl)-3,3-dimethyl-butyl]-amide]
Cc1ccc(S(=O)(=O)n2cc(CN3CCC(C#N)(NC(=O)[C@H](CC4CCCCC4)NC(=O)N4CCOCC4)C3)c3ccccc32)cc1 (stereo partly drawn) [Example 63, Morpholine-4-carboxylic acid (1-{3-cyano-1-[1-(toluene-4-sulfonyl)-1H-indol-3-ylmethyl]-pyrrolidin-3-ylcarbamoyl}-2-cyclohexyl-ethyl)-amide]
CN1CCC(C(=O)N2CCC(C#N)(NC(=O)[C@H](CC3CCCCC3)NC(=O)N3CCOCC3)CC2)CC1 [Example 64, Morpholine-4-carboxylic acid {1-[4-cyano-1-(1-methyl-piperidine-4-carbonyl)-piperidin-4-ylcarbamoyl]-2-cyclohexyl-ethyl}-amide]
CN1CCC(C#N)(NC(=O)[C@H](CC2CCCCC2)NC(=O)c2ccc(NS(C)(=O)=O)cc2)CC1 [Example 65, N-[1-(4-Cyano-1-methyl-piperidin-4-ylcarbamoyl)-2-cyclohexyl-ethyl]-4-methanesulfonylamino-benzamide]
N#CC1(NC(=O)[C@H](CC2CCCCC2)NC(=O)N2CCOCC2)CCN(C(=O)OCc2ccccc2)C1 (stereo partly drawn) [Example 66, 3-Cyano-3-{3-cyclohexyl-2-[(morpholine-4-carbonyl)-amino]-propionylamino}-pyrrolidine-1-carboxylic acid benzyl ester]
N#CC1(NC(=O)[C@H](CC2CCCCC2)NC(=O)N2CCOCC2)CN(Cc2ccccc2)C1 [Example 70, Morpholine-4-carboxylic acid [1-(1-benzyl-3-cyano-azetidin-3-ylcarbamoyl)-2-cyclohexyl-ethyl]-amide]

Reference: US7265132B2, “Compounds useful as reversible inhibitors of cysteine proteases” (Boehringer Ingelheim Pharmaceuticals Inc., priority 1999, dated 2007)
